Measurements: patent US10064928B2, “Peptides and combination of peptides for use in immunotherapy against CLL and other cancers” (IMMATICS BIOTECHNOLOGIES GMBH, priority 2015, dated 2018)

Columns and labels:
[1] = tested on: CLL samples compared to a panel of normal tissues; experiment: Identification and label-free relative LC-MS quantitation of HLA-presented peptides (presentation profiles and scores); set-up: species or system human; key: very highly over-presented on tumors compared to a panel of normal tissues (+++); highly over-presented on tumors compared to a panel of normal tissues (++); over-presented on tumors compared to a panel of normal tissues (+); settings: presentation score; over-presentation on tumors (CLL samples) compared to a panel of normal tissues
[2] = tested on: other tumor types (e.g. non-Hodgkin lymphoma, lung cancer); experiment: Presentation of the peptides on additional tumor types (LC-MS, Tables 4A/4B, FIG. 1); set-up: species or system human; settings: for Other relevant organs/diseases: Table 4A: additional tumor types where the peptide was over-presented on more than 5% of the measured tumor samples, or presented on more than 5% with ratio of geometric means tumor vs normal tissues larger than 3; for Additional Entities: Table 4B: additional tumour types with over-presentation (including specific presentation) on more than 5% of the measured tumour samples, or presentation on more than 5% with ratio of geometric means tumour vs normal tissues larger than 3, extended normal tissue panel

| Substance | Peptide Presentation [1] | Other relevant organs/diseases [2] | Additional Entities [2] |
| --- | --- | --- | --- |
| 290 (LANPHELSL; listed as Homo sapiens) [compound 290] | +++ | AML |  |
| 291 (ILLNEDDLVTI; listed as Homo sapiens) [compound 291] | +++ | SCLC, NHL, Melanoma |  |
| 292 (AAALIIHHV; listed as Homo sapiens) [compound 292] | + | Urinary bladder cancer |  |
| 297 (FLVEPQEDTRL; listed as Homo sapiens) [compound 297] | ++ | NHL, Melanoma |  |
| 298 (IILPVEVEV; listed as Homo sapiens) [compound 298] | +++ | SCLC, NHL, AML, Urinary bladder cancer | CRC, HNSCC |
| 299 (ILEENIPVL; listed as Homo sapiens) [compound 299] | ++ | NHL | Uterine Cancer, AML |
| 304 (LAIVPVNTL; listed as Homo sapiens) [compound 304] | +++ | AML |  |
| 305 (LLFPQIEGIKI; listed as Homo sapiens) [compound 305] | + | NHL, Melanoma | Urinary Bladder Cancer, HNSCC |
| 310 (LLSTLHLLV; listed as Homo sapiens) [compound 310] | + | NHL |  |
| 311 (LLVDVEPKV; listed as Homo sapiens) [compound 311] | + | NSCLC, SCLC, RCC, HCC, PC, NHL, AML, Melanoma | Uterine Cancer, HNSCC |
| 314 (LMKDCEAEV; listed as Homo sapiens) [compound 314] | ++ | NHL |  |
| 316 (MLLEHGITL; listed as Homo sapiens) [compound 316] | +++ | NHL |  |
| 317 (NLLAHIWAL; listed as Homo sapiens) [compound 317] | + | AML | NHL |
| 320 (TIAPVTVAV; listed as Homo sapiens) [compound 320] | + | NHL |  |
| 322 (SLASIHVPL; listed as Homo sapiens) [compound 322] | +++ | NHL |  |
| 323 (SLDLFNCEV; listed as Homo sapiens) [compound 323] | +++ | NHL | Uterine Cancer, AML |
| 327 (VLIKWFPEV; listed as Homo sapiens) [compound 327] | +++ | NHL | Uterine Cancer |
| 328 (VLLPQETAEIHL; listed as Homo sapiens) [compound 328] | ++ | NHL, BRCA, Melanoma, OC, Urinary bladder cancer |  |
| 329 (VLMDGSVKL; listed as Homo sapiens) [compound 329] | + | NHL |  |
| 332 (VMIQHVENL; listed as Homo sapiens) [compound 332] | +++ | NHL |  |

| Substance | Peptide Presentation [1] | Other relevant organs/diseases [2] | Additional Entities [2] |
| --- | --- | --- | --- |
| 334 (YLLEEKIASL; listed as Homo sapiens) [compound 334] | +++ | NHL | AML |
| 336 (YMAVTTQEV; listed as Homo sapiens) [compound 336] | +++ |  | Uterine Cancer |
| 338 (FLDMTNWNL; listed as Homo sapiens) [compound 338] | + | HCC, NHL, Melanoma, OC, Urinary bladder cancer |  |
| 339 (GLWGTVVNI; listed as Homo sapiens) [compound 339] | + | NHL, AML, Melanoma, Uterine Cancer | HNSCC |
| 340 (KLLEEICNL; listed as Homo sapiens) [compound 340] | ++ |  | Melanoma, Uterine Cancer, AML, NHL |
| 341 (LLAELPASVHA; listed as Homo sapiens) [compound 341] | ++ | HCC, NHL, Urinary bladder cancer |  |
| 342 (SLITPLQAV; listed as Homo sapiens) [compound 342] | +++ | NHL, AML, Urinary bladder cancer, Gallbladder Cancer, Bile Duct Cancer | HNSCC |
| 343 (TLLEALDCI; listed as Homo sapiens) [compound 343] | ++ | NHL, AML, Melanoma, Esophageal Cancer | GC, Uterine Cancer, HNSCC |
| 344 (VLAFENPQV; listed as Homo sapiens) [compound 344] | ++ | Esophageal Cancer | HNSCC |
| 346 (VLVQVSPSL; listed as Homo sapiens) [compound 346] | +++ | RCC, NHL, AML, Gallbladder Cancer, Bile Duct Cancer | HNSCC |
| 347 (YLGPVSPSL; listed as Homo sapiens) [compound 347] | + | NHL |  |
| 349 (ALATHILSL; listed as Homo sapiens) [compound 349] | ++ | NHL, Urinary bladder cancer | HCC, Melanoma |
| 350 (ALEDRVWEL; listed as Homo sapiens) [compound 350] | + | NHL, Esophageal Cancer |  |
| 351 (ALSEKLARL; listed as Homo sapiens) [compound 351] | + | HCC, NHL, AML, Urinary bladder cancer | CRC, HNSCC, Melanoma, NSCLC, OC, PC, Brain Cancer, RCC, Uterine Cancer |
| 352 (ALVFELHYV; listed as Homo sapiens) [compound 352] | + | NHL |  |
| 353 (ATPMPTPSV; listed as Homo sapiens) [compound 353] | ++ | SCLC, NHL | BRCA, Uterine Cancer, Gallbladder Cancer, Bile Duct Cancer, AML, HNSCC |
| 354 (FIMDDPAGNSYL; listed as Homo sapiens) [compound 354] | + | CRC, NHL, AML, Melanoma, Esophageal Cancer, Urinary bladder cancer, Gallbladder Cancer, Bile Duct Cancer | Brain Cancer, HNSCC |
| 355 (FIWPMLIHI; listed as Homo sapiens) [compound 355] | +++ |  | Melanoma, Uterine Cancer |
| 357 (FLIQEIKTL; listed as Homo sapiens) [compound 357] | ++ | NHL, OC, Urinary bladder cancer | HCC |
